The text below walks through data of paper doi:10.1101/2020.11.05.370320.

Chains of the proteins cited; added tags and fusions are not shown.
UniProt Q15154: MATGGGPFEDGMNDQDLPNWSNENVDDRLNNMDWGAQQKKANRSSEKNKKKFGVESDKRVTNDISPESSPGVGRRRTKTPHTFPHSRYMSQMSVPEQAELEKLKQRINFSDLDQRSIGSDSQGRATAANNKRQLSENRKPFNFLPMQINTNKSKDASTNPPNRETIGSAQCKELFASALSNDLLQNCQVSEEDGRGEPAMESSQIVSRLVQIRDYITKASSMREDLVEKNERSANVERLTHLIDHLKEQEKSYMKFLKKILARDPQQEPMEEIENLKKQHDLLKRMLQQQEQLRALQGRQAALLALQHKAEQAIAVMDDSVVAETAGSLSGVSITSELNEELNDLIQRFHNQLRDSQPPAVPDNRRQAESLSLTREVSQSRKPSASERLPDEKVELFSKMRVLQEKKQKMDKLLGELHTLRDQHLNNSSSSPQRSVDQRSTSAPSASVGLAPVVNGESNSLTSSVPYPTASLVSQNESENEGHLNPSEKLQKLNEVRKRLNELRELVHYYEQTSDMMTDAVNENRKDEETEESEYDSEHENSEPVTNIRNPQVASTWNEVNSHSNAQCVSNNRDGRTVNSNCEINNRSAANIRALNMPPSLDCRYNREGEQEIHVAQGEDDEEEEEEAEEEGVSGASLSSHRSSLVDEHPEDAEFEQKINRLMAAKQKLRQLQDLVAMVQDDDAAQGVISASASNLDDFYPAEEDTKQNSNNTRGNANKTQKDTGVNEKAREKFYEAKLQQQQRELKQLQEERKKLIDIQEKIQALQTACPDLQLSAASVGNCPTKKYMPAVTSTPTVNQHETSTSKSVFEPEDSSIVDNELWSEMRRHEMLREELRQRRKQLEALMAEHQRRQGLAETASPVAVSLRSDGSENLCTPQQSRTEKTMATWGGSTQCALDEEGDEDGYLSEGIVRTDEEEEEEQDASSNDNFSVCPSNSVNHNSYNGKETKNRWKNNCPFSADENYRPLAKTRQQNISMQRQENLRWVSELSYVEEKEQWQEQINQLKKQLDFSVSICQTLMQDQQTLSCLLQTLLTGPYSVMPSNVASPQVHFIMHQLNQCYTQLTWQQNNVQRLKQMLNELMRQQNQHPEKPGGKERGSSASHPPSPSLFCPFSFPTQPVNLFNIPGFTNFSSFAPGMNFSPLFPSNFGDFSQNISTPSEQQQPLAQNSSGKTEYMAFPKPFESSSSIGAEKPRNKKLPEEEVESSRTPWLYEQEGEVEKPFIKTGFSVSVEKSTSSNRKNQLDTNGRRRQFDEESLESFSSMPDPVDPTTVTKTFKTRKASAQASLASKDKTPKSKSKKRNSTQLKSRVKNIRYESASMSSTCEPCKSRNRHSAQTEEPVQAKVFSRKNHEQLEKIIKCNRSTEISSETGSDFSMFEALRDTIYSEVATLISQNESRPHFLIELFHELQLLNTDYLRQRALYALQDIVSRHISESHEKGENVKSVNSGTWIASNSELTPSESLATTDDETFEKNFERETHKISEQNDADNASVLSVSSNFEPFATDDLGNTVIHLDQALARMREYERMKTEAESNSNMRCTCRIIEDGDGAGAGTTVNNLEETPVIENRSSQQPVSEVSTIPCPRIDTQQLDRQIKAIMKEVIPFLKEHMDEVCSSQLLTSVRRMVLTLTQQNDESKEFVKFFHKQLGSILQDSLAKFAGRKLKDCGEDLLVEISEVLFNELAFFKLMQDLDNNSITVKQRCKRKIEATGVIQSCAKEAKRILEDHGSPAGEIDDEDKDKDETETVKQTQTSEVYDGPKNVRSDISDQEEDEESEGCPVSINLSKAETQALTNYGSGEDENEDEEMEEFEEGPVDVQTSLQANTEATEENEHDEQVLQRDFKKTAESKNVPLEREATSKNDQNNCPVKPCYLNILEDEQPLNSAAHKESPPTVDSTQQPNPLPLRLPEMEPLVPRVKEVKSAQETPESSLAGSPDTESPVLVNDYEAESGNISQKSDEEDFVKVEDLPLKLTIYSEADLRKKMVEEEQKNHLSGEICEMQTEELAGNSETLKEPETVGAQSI

No constants are given. Whether binding was seen depends on the method and setting. In cells and extracts the contact can be indirect. Some binding calls cover weakened binding; strength is not graded here. Where a sequence is shown, tags or fusion partners need not be part of it.

This assay concerns the target GFP-PCM1 (human) (UniProt Q15154). Put plainly: co-IP.

B1: Flag-BirA*-AURKA (Aurora kinase A) (enzyme, UniProt O14965 1-403)
chain: MDRSKENCISGPVKATAPVGGPKRVLVTQQFPCQNPLPVNSGQAQRVLCPSNSSQRIPLQAQKLVSSHKPVQNQKQKQLQATSVPHPVSRPLNNTQKSKQPLPSAPENNPEEELASKQKNEESKKRQWALEDFEIGRPLGKGKFGNVYLAREKQSKFILALKVLFKAQLEKAGVEHQLRREVEIQSHLRHPNILRLYGYFHDATRVYLILEYAPLGTVYRELQKLSKFDEQRTATYITELANALSYCHSKRVIHRDIKPENLLLGSAGELKIADFGWSVHAPSSRRTTLCGTLDYLPPEMIEGRMHDEKVDLWSLGVLCYEFLVGKPPFEANTYQETYKRISRVEFTFPDFVTEGARDLISRLLKHNPSQRPMLREVLEHPWITANSSKPSNCQNKESASKQS
Take B1: the binding result is reported as “binds”.
